Tested on: tinnitus positive mice
Assay: go/no-go trials, sound-based avoidance detection (SBAD) in noise-induced tinnitus mice
Format: in vivo
Settings: intraperitoneal injection
Description: With reference to FIGS. 1A-1D, single drug treatment of tinnitus is evaluated using the go/no-go methodology further elaborated upon in Example 4. With reference to FIGS. 2A-2B, multi drug treatment of tinnitus is evaluated using the go/no-go methodology further elaborated upon in Example 4. […] Using a shuttle box divided into two compartments, mice were trained to cross from side to side with sound cues in the “Go” trials and remain still in the absence of sound in the “No-Go” trials for 15 days. […] The sound cues were randomly played as white noise or narrow-band noise at 8,10,12.5,16, and 29 kHz with sound intensities randomly at 75, 80, or 85 dB. […] Additionally, a hurdle was added on training 11 to reinforce the training. After the 15th training day, mice were tested for 3 days to obtain a baseline score to be compared after noise exposure, as well as retraining for 3 days. Following the successful completion of training so that mice reached a high percentage of success in the trials, the mice were exposed to a noise-induced trauma for tinnitus over a two day period. To ensure that the mice still have their hearing, one ear was protected with an ear plug, while the other ear was exposed to the noise. The mice were placed in a sound booth where they were exposed to 120 dB broadband noise at 4-25 kHz for two hours. […]

Compound	correct rate in the Go trial (CBZ 5 and 8 mg/kg) [%]	correct rate in the Go trial (ESM 300 mg/kg) [%]
NC(=O)N1c2ccccc2C=Cc2ccccc21 [CBZ, carbamazepine]	~100	
CCC1(C)CC(=O)NC1=O (centres unmarked) [ESM, ethosuximide]		~100
